Literature values in patent US20230131804A1, “FARNESOID X RECEPTOR AGONISTS FOR THE TREATMENT OF DISEASE” (Metacrine, Inc., priority 2020, published 2023).
“Also recorded” adds a separate entry of the source. For at least one compound, name, drawing or mass did not settle the structure.

Legend:
[1] = published clinical trials; cited from earlier work
[2] = system: human intrahepatic cholangiocarcinoma cells; conditions: in vitro; cited from earlier work

In the case of `CC[C@H]1[C@@H](O)[C@@H]2[C@H](CC[C@]3(C)[C@@H]([C@H](C)CCC(=O)O)CC[C@@H]23)[C@@]2(C)CC[C@@H](O)C[C@@H]12` [OCA, Obeticholic acid], the “clinical efficacy / benefit (liver biopsy, NAS and fibrosis improvement)” value [1] is given as “demonstrated clinical efficacy; also recorded: demonstrated clinical benefit”, the apoptosis [2] is given as “increased apoptosis” and the “expression of FXR” value [2] is given as “boost expression of FXR”. For the same compound, the proliferation [2] was “decreased proliferation”.
